Library compounds against nucleic acid targets

Targets, with sequences 5′ to 3′:
TPP: TPP riboswitch RNA three-way junction, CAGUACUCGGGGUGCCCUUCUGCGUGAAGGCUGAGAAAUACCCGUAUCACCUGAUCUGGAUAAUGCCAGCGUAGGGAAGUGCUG. Hit rate about 0.7% of about 24,000 compounds.
SAM-II: SAM-II riboswitch RNA pseudoknot, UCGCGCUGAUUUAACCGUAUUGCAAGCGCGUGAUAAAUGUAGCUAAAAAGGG. Hit rate about 1% of about 21,000 compounds.
PreQ1: PreQ1 riboswitch RNA pseudoknot, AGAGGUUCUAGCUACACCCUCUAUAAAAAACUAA. From B. subtilis. Hit rate about 0.7% of about 24,000 compounds.

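Compounds were printed on reactive glass slides in duplicate spots, a dye-labelled oligonucleotide was laid over them, and the fluorescence left after washing was read. For the PreQ1, TPP and SAM-II riboswitches the laboratory earlier reported (doi:10.1038/s41467-019-09493-3) 1 µM RNA, 2 h, and a rule that included a mean Z-score above 3 (spot signal-to-noise against the whole library), a score well above that on a control array, and duplicate spots agreeing (coefficient of variation under 100). The data file gives only the calls; its cut-offs may differ, and compounds hitting several targets are kept. These are primary screening calls, not affinities; a compound without a hit may have attached poorly or may still bind in solution.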
“hit” means called a hit, “none” means screened and not called a hit.
This is an unselected part of the compounds tested.
A target missing from an entry has no call listed here.

{"smiles": "NC[C@H]1O[C@H](O[C@@H]2[C@@H](O)[C@@H](O[C@H]3O[C@H](CO)[C@@H](O)[C@H](N)[C@@H]3O)[C@H](N)C[C@@H]2N)[C@H](O)[C@@H](O)[C@H]1O", "TPP": "none", "SAM-II": "none", "PreQ1": "none"}
{"smiles": "Cc1nccn1CCCC(=O)N1C[C@H](O)[C@@H](N(C)Cc2cccnc2)C1", "TPP": "none", "SAM-II": "none", "PreQ1": "none"}
{"smiles": "CSc1nc(N)c(C(=O)NC2CCCCC2)s1", "TPP": "none", "SAM-II": "none", "PreQ1": "none"}
{"smiles": "C1=CCN(c2nc(-c3cccnc3)nc3c2CCNCC3)CC1", "TPP": "none", "SAM-II": "none", "PreQ1": "none"}
{"smiles": "Nc1ccc2c(c1)[C@@H](O)C[C@@H](C(F)(F)F)O2", "TPP": "none", "SAM-II": "none", "PreQ1": "none"}
{"smiles": "COc1c(F)cc(CNCC2(O)CCCNC2)cc1F", "stereo": "stereo not given", "TPP": "none", "SAM-II": "none", "PreQ1": "none"}
{"smiles": "CC(C)n1cc(C#N)c(N)n1", "TPP": "none", "SAM-II": "none", "PreQ1": "none"}
{"smiles": "COc1ccccc1Cn1c(CO)nc2ccccc21", "TPP": "none", "SAM-II": "none", "PreQ1": "none"}
{"smiles": "Clc1cccc(-c2nnnn2Cc2cccnc2)c1Cl", "TPP": "none", "SAM-II": "none", "PreQ1": "none"}
{"smiles": "ClC(Cl)(Cl)C1=Nc2c(nnn2Cc2ccccc2)CN1", "TPP": "none", "SAM-II": "none", "PreQ1": "none"}
{"smiles": "CCOC(=O)c1ccc2nc(C)cc(Nc3cccc(C(C)=O)c3)c2c1", "TPP": "none", "SAM-II": "none", "PreQ1": "none"}
{"smiles": "Cc1ccc(CNC(=O)C2CCN(C(=O)C(N)c3c(C)n[nH]c3C)CC2)cc1", "stereo": "stereo not given", "TPP": "none", "SAM-II": "none", "PreQ1": "none"}
{"smiles": "CCCc1[nH]nc2c1C(c1ccccc1Cl)C(C#N)=C(N)O2", "stereo": "stereo not given", "TPP": "none", "SAM-II": "none", "PreQ1": "none"}
{"smiles": "C[C@@H](N)C1CCC(C(=O)Nc2ccncc2)CC1", "stereo": "stereo not given in full", "TPP": "none", "SAM-II": "none", "PreQ1": "none"}
{"smiles": "Nc1nc2c(s1)CN(c1cc(-c3ccccc3)nc3ccnn13)CC2", "TPP": "none", "SAM-II": "none", "PreQ1": "none"}
{"smiles": "O=c1oc2ccccc2n1CCN1CCCC2(CCNC2)C1", "stereo": "stereo not given", "TPP": "none", "SAM-II": "none", "PreQ1": "none"}
{"smiles": "OCCCN1CCc2onc(C(c3ccccc3)c3ccccc3)c2C1", "TPP": "none", "SAM-II": "none", "PreQ1": "none"}
{"smiles": "CCOC(=O)c1c(C(C#N)=CN)c2ccc(Cl)c(Cl)c2n1C", "TPP": "none", "SAM-II": "none", "PreQ1": "none"}
{"smiles": "N#CCS(=O)(=O)c1cccc[n+]1[O-]", "TPP": "none", "SAM-II": "none", "PreQ1": "none"}
{"smiles": "Cc1ccc(-c2c(C#N)c(N)nc3c2CC(C)CC3)o1", "stereo": "stereo not given", "TPP": "none", "SAM-II": "none", "PreQ1": "none"}
{"smiles": "Cc1cccnc1C(C)NC(=O)c1cccc2c1NCCC2", "stereo": "stereo not given", "TPP": "none", "SAM-II": "none", "PreQ1": "none"}
{"smiles": "Cc1ccn(-c2ccc(-c3ncco3)cc2)c(=O)c1-c1ccc2nc(N)ncc2c1", "TPP": "none", "SAM-II": "none", "PreQ1": "none"}
{"smiles": "O=C(NC(Nc1ccc(Cl)cc1)C(=O)c1ccccc1)c1ccccc1", "stereo": "stereo not given", "TPP": "none", "SAM-II": "none", "PreQ1": "none"}
{"smiles": "FC(F)(F)c1nnc2c3ccccc3c(NC3CC3)nn12", "TPP": "none", "SAM-II": "none", "PreQ1": "none"}
{"smiles": "Cc1ccc(C=C2C(Cl)=C(Cl)C(Cl)=C2Cl)cc1", "TPP": "none", "SAM-II": "none", "PreQ1": "none"}
{"smiles": "CCOC(=O)c1cnc2ccccc2c1Nc1cc(C(=O)O)ccc1C", "TPP": "none", "SAM-II": "none", "PreQ1": "none"}
{"smiles": "Cc1nn(-c2ccccc2)c2c1C1(C(=O)N(Cc3ccc(F)cc3)c3ccccc31)C(C#N)=C(N)O2", "stereo": "stereo not given", "TPP": "none", "SAM-II": "none", "PreQ1": "none"}
{"smiles": "CCNc1ncc(C(=O)N[C@@H]2CC[C@@H](N)C2)cn1", "TPP": "none", "SAM-II": "none", "PreQ1": "none"}
{"smiles": "COc1cc(C)c(CNCCc2ccccc2OC)cc1C", "TPP": "none", "SAM-II": "none", "PreQ1": "none"}
{"smiles": "CNc1cc(C)nc(N2CCC(N3CCCC(O)C3)CC2)n1", "stereo": "stereo not given", "TPP": "none", "SAM-II": "none", "PreQ1": "none"}
{"smiles": "C1CCCC(NC2=NCCO2)CCC1", "TPP": "none", "SAM-II": "none", "PreQ1": "none"}
{"smiles": "CCN1c2ccccc2C2=C(C(c3ccccc3OC)C(C#N)=C(N)O2)S1(=O)=O", "stereo": "stereo not given", "TPP": "none", "PreQ1": "none"}
{"smiles": "Cc1ccc(Cl)cc1NC(=O)N1CCN(C(=O)c2nonc2N)CC1", "TPP": "none", "PreQ1": "none"}
{"smiles": "C=CCN1C(=O)C2(C(C(=O)OCC)=C(C)OC(N)=C2C(=O)OCC)c2ccccc21", "stereo": "stereo not given", "TPP": "none", "SAM-II": "none", "PreQ1": "none"}
{"smiles": "CN(CC1(CO)CCOCC1)C(=O)COCc1ccccc1", "TPP": "none", "SAM-II": "none", "PreQ1": "none"}
{"smiles": "COc1cc(Nc2ncc(F)c(Nc3ccc4c(n3)NC(=O)C(C)(C)O4)n2)cc(OC)c1OC", "TPP": "none", "SAM-II": "none", "PreQ1": "none"}
{"smiles": "O=C1N(CCCc2ccccc2)CCCC1(O)CNCC(F)F", "stereo": "stereo not given", "TPP": "none", "SAM-II": "none", "PreQ1": "none"}
{"smiles": "COc1ccc(CCNC(=O)CCCO)cc1OC", "TPP": "none", "SAM-II": "none", "PreQ1": "none"}
{"smiles": "COc1ccc(Nc2nnc(-c3cc4cc(OC)ccc4oc3=O)s2)cc1", "TPP": "none", "SAM-II": "none", "PreQ1": "none"}
{"smiles": "NCCCN1C(=O)CC[C@H]2CN(C(=O)CCn3cnnn3)CC[C@H]21", "TPP": "none", "SAM-II": "none", "PreQ1": "none"}
{"smiles": "O=C(Nc1ccc(C2=NCCCN2)cc1)Nc1ccc(C2=NCCCN2)cc1", "TPP": "none", "SAM-II": "none", "PreQ1": "none"}
{"smiles": "C=CCOC(=O)C1=C(C)OC(N)=C(C(=O)OCC)C12C(=O)N(C)c1ccccc12", "stereo": "stereo not given", "TPP": "none", "SAM-II": "none", "PreQ1": "none"}

The last 2 entries again:

SMILES	TPP	SAM-II	PreQ1
O=C(Nc1ccc(C2=NCCCN2)cc1)Nc1ccc(C2=NCCCN2)cc1	none	none	none
C=CCOC(=O)C1=C(C)OC(N)=C(C(=O)OCC)C12C(=O)N(C)c1ccccc12 (stereo not given)	none	none	none

From ROBIN, a set of small-molecule microarray screens (doi:10.1002/anie.202211358).